The supplement of paper PMC7666118
The list shows a part of the results.

Protein sequences, listed by entry. Tags and fused reporters are not part of them. Lines headed by an entry give the natural chain unless they say otherwise; changes in a name come on top.
UniProt P13489: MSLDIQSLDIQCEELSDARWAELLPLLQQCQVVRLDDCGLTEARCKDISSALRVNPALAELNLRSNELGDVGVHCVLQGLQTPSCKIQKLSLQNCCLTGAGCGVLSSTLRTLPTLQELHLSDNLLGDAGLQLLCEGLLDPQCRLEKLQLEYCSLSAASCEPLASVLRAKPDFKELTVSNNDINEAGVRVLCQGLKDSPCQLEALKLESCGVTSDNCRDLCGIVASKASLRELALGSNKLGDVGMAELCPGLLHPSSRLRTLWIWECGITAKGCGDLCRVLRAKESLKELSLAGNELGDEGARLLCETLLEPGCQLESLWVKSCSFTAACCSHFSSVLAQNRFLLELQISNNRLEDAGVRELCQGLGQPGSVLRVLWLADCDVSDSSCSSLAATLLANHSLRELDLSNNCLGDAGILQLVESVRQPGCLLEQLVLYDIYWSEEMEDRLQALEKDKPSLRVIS
UniProt Q5VWQ0: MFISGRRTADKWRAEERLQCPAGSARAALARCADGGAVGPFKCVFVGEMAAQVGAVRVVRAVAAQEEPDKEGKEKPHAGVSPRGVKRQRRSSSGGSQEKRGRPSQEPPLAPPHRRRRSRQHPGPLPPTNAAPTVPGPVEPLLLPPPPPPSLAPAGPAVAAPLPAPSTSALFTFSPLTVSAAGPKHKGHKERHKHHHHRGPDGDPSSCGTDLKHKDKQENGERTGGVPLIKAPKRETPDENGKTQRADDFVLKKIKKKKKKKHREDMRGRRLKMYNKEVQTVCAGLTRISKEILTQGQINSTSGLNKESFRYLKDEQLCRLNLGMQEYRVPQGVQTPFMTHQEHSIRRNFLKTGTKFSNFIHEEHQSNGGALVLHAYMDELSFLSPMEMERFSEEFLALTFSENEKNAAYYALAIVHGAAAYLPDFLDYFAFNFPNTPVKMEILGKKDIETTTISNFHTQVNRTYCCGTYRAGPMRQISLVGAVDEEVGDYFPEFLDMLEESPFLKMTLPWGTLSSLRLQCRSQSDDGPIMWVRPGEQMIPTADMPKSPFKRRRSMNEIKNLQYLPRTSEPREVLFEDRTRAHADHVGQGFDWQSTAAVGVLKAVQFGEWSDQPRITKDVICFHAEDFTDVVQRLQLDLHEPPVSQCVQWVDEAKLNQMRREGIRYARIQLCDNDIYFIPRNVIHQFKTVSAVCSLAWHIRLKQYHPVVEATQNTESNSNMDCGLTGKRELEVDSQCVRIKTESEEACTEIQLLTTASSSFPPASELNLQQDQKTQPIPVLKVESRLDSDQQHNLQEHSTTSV
UniProt Q14684: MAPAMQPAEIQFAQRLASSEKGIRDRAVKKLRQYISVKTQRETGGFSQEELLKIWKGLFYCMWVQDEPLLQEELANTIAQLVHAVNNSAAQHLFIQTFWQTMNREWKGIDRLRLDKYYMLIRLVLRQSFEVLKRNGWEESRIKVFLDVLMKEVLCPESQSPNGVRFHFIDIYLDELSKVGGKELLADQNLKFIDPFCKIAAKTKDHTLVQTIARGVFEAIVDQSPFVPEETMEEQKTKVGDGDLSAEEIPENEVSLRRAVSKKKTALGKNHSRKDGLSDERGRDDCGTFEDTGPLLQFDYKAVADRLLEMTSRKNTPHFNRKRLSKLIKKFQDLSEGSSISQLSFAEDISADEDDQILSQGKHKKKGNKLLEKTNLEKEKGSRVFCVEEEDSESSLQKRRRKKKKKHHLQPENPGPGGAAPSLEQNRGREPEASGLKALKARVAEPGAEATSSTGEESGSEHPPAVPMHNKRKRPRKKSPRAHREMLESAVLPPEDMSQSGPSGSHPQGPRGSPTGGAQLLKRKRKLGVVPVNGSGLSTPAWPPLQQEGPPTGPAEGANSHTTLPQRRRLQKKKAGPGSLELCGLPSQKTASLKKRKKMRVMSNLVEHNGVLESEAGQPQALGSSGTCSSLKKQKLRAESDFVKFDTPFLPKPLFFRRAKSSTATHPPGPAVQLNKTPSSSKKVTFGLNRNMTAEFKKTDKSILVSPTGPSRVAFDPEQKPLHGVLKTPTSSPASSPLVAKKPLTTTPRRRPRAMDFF
UniProt Q8TB24: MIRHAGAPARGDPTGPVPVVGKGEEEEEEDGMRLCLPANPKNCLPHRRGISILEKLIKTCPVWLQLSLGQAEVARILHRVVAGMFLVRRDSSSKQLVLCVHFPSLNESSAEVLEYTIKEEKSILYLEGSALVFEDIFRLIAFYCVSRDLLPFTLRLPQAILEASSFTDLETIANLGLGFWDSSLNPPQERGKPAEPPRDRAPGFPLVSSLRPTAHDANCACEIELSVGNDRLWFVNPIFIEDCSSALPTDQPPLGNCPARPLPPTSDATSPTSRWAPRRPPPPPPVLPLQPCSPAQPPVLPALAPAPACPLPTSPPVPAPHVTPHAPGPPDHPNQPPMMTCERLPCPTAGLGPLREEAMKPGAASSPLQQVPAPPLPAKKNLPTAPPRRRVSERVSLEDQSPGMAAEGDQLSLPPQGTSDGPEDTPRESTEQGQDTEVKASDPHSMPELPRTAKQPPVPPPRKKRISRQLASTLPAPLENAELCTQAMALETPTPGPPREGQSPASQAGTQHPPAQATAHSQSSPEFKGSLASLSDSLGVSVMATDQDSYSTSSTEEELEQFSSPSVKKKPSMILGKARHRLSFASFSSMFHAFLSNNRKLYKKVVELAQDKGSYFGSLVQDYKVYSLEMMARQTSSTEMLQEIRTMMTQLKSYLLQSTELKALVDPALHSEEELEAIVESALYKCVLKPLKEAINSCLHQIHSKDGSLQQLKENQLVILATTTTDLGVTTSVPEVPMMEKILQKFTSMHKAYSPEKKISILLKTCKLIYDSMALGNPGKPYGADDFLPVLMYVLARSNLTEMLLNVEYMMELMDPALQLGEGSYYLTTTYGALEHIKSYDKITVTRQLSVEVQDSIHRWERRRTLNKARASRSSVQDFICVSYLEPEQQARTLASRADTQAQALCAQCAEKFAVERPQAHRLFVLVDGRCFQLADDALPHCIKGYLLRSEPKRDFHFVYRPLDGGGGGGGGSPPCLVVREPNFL
UniProt O75446: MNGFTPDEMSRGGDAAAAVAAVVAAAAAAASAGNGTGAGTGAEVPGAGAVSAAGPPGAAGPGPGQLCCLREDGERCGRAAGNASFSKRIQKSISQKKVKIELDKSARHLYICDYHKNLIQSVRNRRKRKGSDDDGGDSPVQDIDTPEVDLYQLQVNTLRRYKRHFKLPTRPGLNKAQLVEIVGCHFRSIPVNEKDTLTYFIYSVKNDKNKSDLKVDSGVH
UniProt O43818: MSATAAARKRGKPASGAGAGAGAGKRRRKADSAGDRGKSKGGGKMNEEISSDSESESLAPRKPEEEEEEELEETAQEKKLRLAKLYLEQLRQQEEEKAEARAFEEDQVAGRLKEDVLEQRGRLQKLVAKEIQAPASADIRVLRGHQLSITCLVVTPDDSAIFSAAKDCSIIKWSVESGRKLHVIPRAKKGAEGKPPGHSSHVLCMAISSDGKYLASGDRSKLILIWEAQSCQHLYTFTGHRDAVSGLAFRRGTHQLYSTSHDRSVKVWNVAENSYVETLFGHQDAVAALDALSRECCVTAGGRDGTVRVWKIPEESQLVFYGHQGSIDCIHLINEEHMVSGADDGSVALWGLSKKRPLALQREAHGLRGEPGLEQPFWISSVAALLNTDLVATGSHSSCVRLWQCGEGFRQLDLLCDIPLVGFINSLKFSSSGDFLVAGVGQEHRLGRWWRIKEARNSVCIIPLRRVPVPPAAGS
UniProt Q14699: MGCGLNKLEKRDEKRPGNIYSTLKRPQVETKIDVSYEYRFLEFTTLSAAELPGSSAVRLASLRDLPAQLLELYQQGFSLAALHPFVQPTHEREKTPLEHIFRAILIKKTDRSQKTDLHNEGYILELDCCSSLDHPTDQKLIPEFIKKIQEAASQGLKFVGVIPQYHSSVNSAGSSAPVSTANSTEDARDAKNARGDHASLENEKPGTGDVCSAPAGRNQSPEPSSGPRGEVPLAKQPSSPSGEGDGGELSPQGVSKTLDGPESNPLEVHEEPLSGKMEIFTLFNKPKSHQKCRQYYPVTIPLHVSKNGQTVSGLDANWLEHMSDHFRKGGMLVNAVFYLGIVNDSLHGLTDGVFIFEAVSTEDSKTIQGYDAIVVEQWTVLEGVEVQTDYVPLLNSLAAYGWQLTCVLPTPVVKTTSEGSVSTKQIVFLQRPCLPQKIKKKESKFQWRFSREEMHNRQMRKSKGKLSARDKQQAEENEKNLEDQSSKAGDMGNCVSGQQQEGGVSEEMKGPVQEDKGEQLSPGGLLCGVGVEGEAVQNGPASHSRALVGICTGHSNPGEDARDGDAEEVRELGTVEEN
UniProt O75150, whole entry: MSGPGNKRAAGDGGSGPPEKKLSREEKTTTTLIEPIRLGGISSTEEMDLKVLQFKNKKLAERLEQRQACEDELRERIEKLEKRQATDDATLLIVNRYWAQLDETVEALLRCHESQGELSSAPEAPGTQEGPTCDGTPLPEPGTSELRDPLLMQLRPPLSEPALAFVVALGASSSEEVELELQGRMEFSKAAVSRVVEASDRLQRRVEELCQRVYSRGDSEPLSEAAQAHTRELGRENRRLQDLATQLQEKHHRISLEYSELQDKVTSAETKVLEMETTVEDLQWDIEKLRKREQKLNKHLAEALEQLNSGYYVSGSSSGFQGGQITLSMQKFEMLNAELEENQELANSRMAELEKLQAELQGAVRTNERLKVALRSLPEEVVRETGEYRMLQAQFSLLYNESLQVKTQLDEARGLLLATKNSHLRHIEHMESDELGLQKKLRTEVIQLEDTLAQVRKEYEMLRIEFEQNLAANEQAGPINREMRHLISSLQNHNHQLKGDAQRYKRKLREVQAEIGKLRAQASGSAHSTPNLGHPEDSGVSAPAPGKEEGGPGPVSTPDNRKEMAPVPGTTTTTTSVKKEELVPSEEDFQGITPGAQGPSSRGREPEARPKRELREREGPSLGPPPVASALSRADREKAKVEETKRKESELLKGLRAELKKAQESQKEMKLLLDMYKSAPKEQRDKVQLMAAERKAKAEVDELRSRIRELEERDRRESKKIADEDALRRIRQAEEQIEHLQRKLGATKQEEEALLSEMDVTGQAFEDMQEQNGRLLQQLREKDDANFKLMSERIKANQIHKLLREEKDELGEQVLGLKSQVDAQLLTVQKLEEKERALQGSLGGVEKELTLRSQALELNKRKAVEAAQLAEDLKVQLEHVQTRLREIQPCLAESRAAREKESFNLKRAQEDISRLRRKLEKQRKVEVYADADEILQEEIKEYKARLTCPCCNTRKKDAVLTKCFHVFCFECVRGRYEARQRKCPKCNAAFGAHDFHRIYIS

Compound: COc1ccc(Cn2ccc3ccc(C(=O)NO)cc32)cc1
Experiment: dose-dependent thermal stabilisation call (2D-TPP, DLPTP, 10% FDR) (binary (1 = stabilised)); higher = stabilised by the compound
Conditions: system: HL-60 intact cells; concentration range 0.04-10 µM

Target	dose-dependent thermal stabilisation call
RNH1 (UniProt P13489)	inactive: 0
RSBN1 (UniProt Q5VWQ0)	inactive: 0
RRP1B (UniProt Q14684)	inactive: 0
RIN3 (UniProt Q8TB24)	inactive: 0
SAP30 (UniProt O75446)	inactive: 0
RPL35 (UniProt P42766)	inactive: 0
RRP9 (UniProt O43818)	inactive: 0
RFTN1 (UniProt Q14699)	inactive: 0
SACS (UniProt Q9NZJ4)	inactive: 0
RNF40 (UniProt O75150)	inactive: 0

Pulled one by one from above, 2 records:
Target	dose-dependent thermal stabilisation call
RRP1B (UniProt Q14684)	inactive: 0
RNF40 (UniProt O75150)	inactive: 0
